# Test results published in PubChem BioAssay AID1487 (National Center for Advancing Translational Sciences (NCATS), 2009).
# The list shows a part of the results. Shown are side measurements of this screen, not its main read-out; they come without a call. The list favours compounds with an active or inconclusive main result. Potencies come from curve fits of mixed quality, noted in brackets.
# Experiment: qHTS Assay for Modulators of Lamin A Splicing
# Settings: HeLa LMNA splicing GFP/RFP minigene ratio, 48 h
# In short: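 Read-out is the ratio of GFP to DsRed2 object intensity, acquired by 488 nm laser-scanning cytometry on HeLa lamin A-EGFP minigene reporter cells. Compound incubation 48 hrs at 37 °C in Opti-MEM with 2% FBS; DMSO 0.5% final.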
# [1] = measured here: GFP splicing reporter channel
# [2] = measured here: RFP viability control channel
Structure (SMILES),AC50 [1],AC50 [2]
C=CCn1c(SCC(=O)Nc2ncc(Cc3ccc(Br)cc3)s2)nnc1-c1ccncc1,"31.6 µM [falling, single point]","35.5 µM [falling, single point]"
CCOC(=O)Nc1ccc(NS(=O)(=O)c2ccc(C)cc2)cc1,,"0.501 µM [rising, full curve, poor fit]"
Cn1nnc(C(O)CN2CCOCC2)n1 (configuration not stated),"1.78 µM [rising, partial curve, poor fit]",
O=c1oc2ccccc2cc1-c1csc(NN=C2CCCC2)n1,,"22.4 µM [rising, single point]"
Cc1ccc(NC(=O)c2sccc2C)cc1S(=O)(=O)N(C)C,,"5.01 µM [rising, partial curve, poor fit]"
CC(=O)Nc1ccc(S(=O)(=O)NCC2CCC(C(=O)NCCN(CC(C)C)CC(C)C)CC2)cc1 (configuration not stated),"0.0398 µM [rising, full curve]","0.0316 µM [rising, full curve, poor fit]"
CCOC(=O)c1cc(C)n(-c2ccc(OC)c(OC)c2)c1C,,"0.501 µM [rising, partial curve, poor fit]"
O=C(Nc1ccc(C#Cc2ccccc2)cc1)C1CC1,,"11.2 µM [rising, partial curve]"
COc1ccc([C@H]2[C@H](C(=O)OC(C)(C)C)N3N=Cc4ccccc4C3C23C(=O)c2ccccc2C3=O)cc1OC (some centres not stated),"8.91 µM [rising, partial curve, poor fit]","5.01 µM [rising, partial curve, poor fit]"
O=C(Nn1cnc2ccccc2c1=O)c1ccc([N+](=O)[O-])cc1Cl,"7.08 µM [falling, full curve, poor fit]",
[NH-]c1ncnc2c1N=C[N+]2=CC=CCO,,"5.62 µM [rising, single point]"
Cc1ccc(S(=O)(=O)NC2CCCCC2)c(C)c1NS(C)(=O)=O,,"0.0891 µM [rising, full curve, poor fit]"
COc1ccc(-c2nc3cnc(Oc4cccc(Cl)c4)nc3n(C3CC3)c2=O)cc1,,"12.6 µM [falling, single point]"
COc1ccccc1NS(=O)(=O)c1cccc(NC(=O)c2ccc3ccccc3n2)c1,,"22.4 µM [rising, partial curve, poor fit]"
CCc1ccc(-n2c(C)nc3cc(C(=O)NCCc4ccccc4)ccc32)cc1,"10 µM [falling, partial curve, poor fit]",
CCN1/C(=C/c2ccc3ccc(C)cc3[n+]2CC)Sc2ccccc21,,"5.01 µM [rising, single point]"
Cc1ccc(CCNC(=O)CCSCc2ccc(Cl)cc2)cc1,"0.141 µM [falling, full curve, poor fit]","0.0631 µM [falling, full curve, poor fit]"
CCc1cc(C(=O)Cc2cnn(-c3ccccc3)c2)c(O)cc1O,"12.6 µM [rising, partial curve]","14.1 µM [rising, partial curve]"

# Reformatted bar-delimited: ten of the compounds above
Structure (SMILES) | AC50 [1] | AC50 [2]
Cn1nnc(C(O)CN2CCOCC2)n1 (configuration not stated) | 1.78 µM [rising, partial curve, poor fit] | 
O=c1oc2ccccc2cc1-c1csc(NN=C2CCCC2)n1 |  | 22.4 µM [rising, single point]
CCOC(=O)c1cc(C)n(-c2ccc(OC)c(OC)c2)c1C |  | 0.501 µM [rising, partial curve, poor fit]
O=C(Nc1ccc(C#Cc2ccccc2)cc1)C1CC1 |  | 11.2 µM [rising, partial curve]
O=C(Nn1cnc2ccccc2c1=O)c1ccc([N+](=O)[O-])cc1Cl | 7.08 µM [falling, full curve, poor fit] | 
[NH-]c1ncnc2c1N=C[N+]2=CC=CCO |  | 5.62 µM [rising, single point]
COc1ccccc1NS(=O)(=O)c1cccc(NC(=O)c2ccc3ccccc3n2)c1 |  | 22.4 µM [rising, partial curve, poor fit]
CCN1/C(=C/c2ccc3ccc(C)cc3[n+]2CC)Sc2ccccc21 |  | 5.01 µM [rising, single point]
Cc1ccc(CCNC(=O)CCSCc2ccc(Cl)cc2)cc1 | 0.141 µM [falling, full curve, poor fit] | 0.0631 µM [falling, full curve, poor fit]
CCc1cc(C(=O)Cc2cnn(-c3ccccc3)c2)c(O)cc1O | 12.6 µM [rising, partial curve] | 14.1 µM [rising, partial curve]

# Continuation.

Structure (SMILES),AC50 [1],AC50 [2]
CCN(CC)CCNC(=O)c1cc(Br)c(N)cc1OC,"0.2 µM [falling, full curve, poor fit]",
O=Cc1cccc(Oc2ccc([N+](=O)[O-])cc2[N+](=O)[O-])c1,,"14.1 µM [rising, partial curve, poor fit]"
Cc1cc(OCC(=O)Nc2cccc(S(=O)(=O)NC3=NCCCCC3)c2)ccc1Cl,"20 µM [rising, single point]","35.5 µM [rising, single point]"
CN(c1ccccc1)S(=O)(=O)c1cccc(NC(=O)CC(C)(C)C)c1,"2 µM [rising, full curve, poor fit]","14.1 µM [rising, partial curve]"
O=C(O)CS/C(=C\c1ccc(F)cc1)c1nc2ccccc2s1,,"7.08 µM [rising, partial curve]"
O=C(CCc1nnc(-c2ccccc2)o1)NCc1cc(F)ccc1F,,"0.631 µM [rising, partial curve, poor fit]"
CCCSc1cc(NCCOC(=O)CCC)c([N+](=O)[O-])c2nonc12,,"22.4 µM [rising, single point]"
CCCCC(=O)NC(=S)Nc1cccc(C(=O)O)c1,"0.00316 µM [falling, full curve, poor fit]",
COc1ccc(-c2cccc(NS(=O)(=O)c3cc(C)c(Cl)cc3C)c2)nn1,"3.16 µM [falling, partial curve, poor fit]","0.0447 µM [falling, full curve, poor fit]"
Cc1cccc(CS(=O)(=O)Cc2ccc(C(=O)NCc3ccc(Cl)cc3)o2)c1,,"28.2 µM [falling, partial curve]"
CN(c1ccc(Cl)cc1)c1cc(=O)n(C)c2ccccc12,,"14.1 µM [rising, partial curve]"
CC1CCCC(C)N1C(=O)c1cc2ncc(CCCl)cn2n1 (configuration not stated),"35.5 µM [rising, single point]","22.4 µM [rising, single point]"
Cc1nn2c(-c3cccc(NC(=O)CSc4nc5ccccc5o4)c3)nnc2c2ccccc12,,"35.5 µM [rising, single point]"
O=C(CSc1nc2ccccc2o1)N1c2ccccc2Sc2ccccc21,,"22.4 µM [rising, single point]"
O=C1c2ccccc2C(=O)N1CCc1csc(-c2cccc(Cl)c2)n1,,"11.2 µM [rising, single point]"
COc1cccc(CSc2nc3n(n2)C(c2ccccc2C)C(C(=O)Nc2ccccc2OC)=C(C)N3)c1 (configuration not stated),"22.4 µM [rising, single point]","31.6 µM [rising, single point]"
CCOc1ccc2nc(N3CCCN(C(=O)Nc4ccccc4C)CC3)c(C#N)cc2c1,"35.5 µM [rising, single point]","35.5 µM [rising, single point]"
CC(=O)Nc1ccc(OCc2nnc(-c3ccc(Cl)cc3)o2)cc1,"7.94 µM [rising, partial curve]",
